Laboratory results: article PMC6191456 (Scientific Reports, 2018)
No constants are given. Whether binding was seen depends on the method and setting. Some entries that bind do so weakly or less than the wild type.

T1: ClpA, the ATPase unit of ClpAP protease (E. coli, UniProt P0ABH9 1-758)
T1 construct: ClpA, ATP-dependent unfoldase subunit of the ClpAP protease, E. coli; also called ClpA ATPase; source: purified by a published protocol [55]
T1 sequence (looked up): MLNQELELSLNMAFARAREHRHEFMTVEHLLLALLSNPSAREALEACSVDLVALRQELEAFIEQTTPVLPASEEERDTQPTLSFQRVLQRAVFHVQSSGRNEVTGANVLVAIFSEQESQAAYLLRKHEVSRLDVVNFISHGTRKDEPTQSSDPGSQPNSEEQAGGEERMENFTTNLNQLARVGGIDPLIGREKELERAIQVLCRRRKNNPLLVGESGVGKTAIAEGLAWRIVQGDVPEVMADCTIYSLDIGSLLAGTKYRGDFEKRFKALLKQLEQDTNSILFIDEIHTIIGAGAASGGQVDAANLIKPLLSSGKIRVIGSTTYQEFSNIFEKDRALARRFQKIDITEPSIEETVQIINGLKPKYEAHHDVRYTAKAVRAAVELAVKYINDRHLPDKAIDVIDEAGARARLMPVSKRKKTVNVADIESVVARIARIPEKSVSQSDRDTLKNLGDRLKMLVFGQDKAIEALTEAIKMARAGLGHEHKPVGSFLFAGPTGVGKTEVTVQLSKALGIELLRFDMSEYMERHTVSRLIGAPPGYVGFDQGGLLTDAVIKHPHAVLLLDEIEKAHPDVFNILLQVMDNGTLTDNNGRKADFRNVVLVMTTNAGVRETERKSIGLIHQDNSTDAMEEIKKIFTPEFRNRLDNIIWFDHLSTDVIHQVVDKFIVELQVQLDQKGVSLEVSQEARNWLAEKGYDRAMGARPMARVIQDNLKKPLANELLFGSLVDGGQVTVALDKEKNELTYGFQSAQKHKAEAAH

T2: complex of ClpA with TrfA (E. coli | not stated) (UniProt P0ABH9)
T2 sequence 1: T1 sequence (looked up)
T2 sequence 2: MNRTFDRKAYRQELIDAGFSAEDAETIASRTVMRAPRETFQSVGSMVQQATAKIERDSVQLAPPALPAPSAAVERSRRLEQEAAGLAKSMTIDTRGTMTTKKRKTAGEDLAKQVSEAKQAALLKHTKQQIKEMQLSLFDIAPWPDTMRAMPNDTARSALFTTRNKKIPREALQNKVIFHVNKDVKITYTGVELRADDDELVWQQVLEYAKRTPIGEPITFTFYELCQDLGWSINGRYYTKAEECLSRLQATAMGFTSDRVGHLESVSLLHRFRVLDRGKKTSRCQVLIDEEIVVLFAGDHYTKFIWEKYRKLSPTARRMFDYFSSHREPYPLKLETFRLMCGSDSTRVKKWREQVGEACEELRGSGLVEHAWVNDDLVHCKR

B1: TrfA (protein, UniProt P07676 1-382)
chain: T2 sequence 2
B2: ParE toxin of the parDE system from the broad host range plasmid RK2 (natural protein)
chain: MTAYILTAEAEADLRGIIRYTRREWGAAQVRRYIAKLEQGIARLAAGEGPFKDMSELFPALRMARCEHHYVFCLPRAGEPALVVAILHERMDLMTRLADRLKG
notes: also called GST-ParE

Legend:
[1] = molecular target: T1, ClpA, the ATPase unit of ClpAP protease; test: SPR; ParE tested on the complex of ClpA with TrfA (Supplementary Fig. S7); both purified
[2] = molecular target: T2, complex of ClpA with TrfA (E. coli | not stated); test: as above

Row | Binder | binding [1] | binding [2]
1 | B1 | binds | –
2 | B2 | – | no binding
